Reference: patent US20230047208A1, “RNA Splicing Modulation” (The General Hospital Corporation, priority 2020, published 2023)
This continues a long series; more values of the same kind are listed elsewhere.

System: wildtype (WT) human fibroblast cell lines
Assay: Transcriptome-wide splicing by RNA sequencing (RNASeq), exon triplet PSI change;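 for Effect: six WT fibroblast lines treated seven days versus DMSO vehicle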;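 for T-PSI: T-PSI is average treated PSI after seven days of treatment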
Format: cell-based
Parameters: key to Effect: Exclusion; Inclusion; Unchanged
From the text: FIG. 2A provides a representation of an exon triplet. Exon U is upstream of Exon X, which is upstream of Exon D. R1, R2 and R3 represent RNA sequencing (RNASeq) reads spanning the regions between two adjacent exons. UI1, I1X, XI2 and I2D are four regions flanking the four splice sites of the exon-triplet. Each flanking region consists of 25 exonic base pairs and 75 intronic base pairs.
FIG. 2B provides a volcano plot showing the ψ (PSI: Percent Spliced-In) changes in splicing after treatment with Compound (I). Each dot represents one of the 161,097 expressed exon triplets in human fibroblasts. The x axis represents the ψ changes after treatment and the y axis represents the False Discovery Rate (FDR) (log 10 transformed). […] The horizontal dashed line indicates an FDR of 0.1. The dots on the right side of the right vertical dashed line and above the horizontal dashed line represent the exon-triplets with an increase for Exon X inclusion (Δψ≥0.1 and FDR<0.1) while the dots on left side of the left vertical dashed line and above the horizontal dashed line represent an increase for Exon X exclusion (Δψ≤−0.1 and FDR<0.1). Black dots in-between the two vertical dashed lines represent exon-triplets unchanged from the treatment.
In some aspects, analysis is performed on data derived from the assay to measure the magnitude of splicing to determine the amount of exons spliced into an mRNA transcript that is produced in the presence of Compound (I) relative to the amount in the absence of Compound (I) or presence of a negative control. In a preferred aspect, the method utilized is calculation of change in Percent Spliced In (ΔPSI). […] The ΔPSI value is derived from the formula: […]
The values for “a” and “b” represent the number of reads supporting the probability for potential inclusion or exclusion of an exon in an RNA transcript. The “a” value is derived from the number of reads within an exon triplet covering, in 5′ to 3′ order: the last few bases (>1 nucleotide) of an upstream exon operably linked to the first few bases (>1 nucleotide) of a middle exon. The “b” value is derived from the number of reads within an exon triplet covering, in 5′ to 3′ order: the last few bases (>1 nucleotide) of the middle exon operably linked to the first few bases (>1 nucleotide) of a downstream exon. The number of reads will indicate whether the splice junction of a middle exon has been identified as potentially having a CNN Motif(s) by the CNN Model described herein, wherein the inclusion or exclusion of the middle exon may be modulated in the presence of Compound (I) to produce one or more mature RNA isoforms from the gene transcript. The value for “c” represents the number of reads supporting the exclusion of the middle exon.
The effect on splicing modulation and corresponding splice differences toward exon inclusion or exclusion was determined by counting the RNASeq reads covering two splice junctions of exon triplets (three consecutive exons: Exon U, Exon X, Exon D) and the corresponding intervening introns, then comparing the change in Percent Spliced In (ΔPSI or Δψ) of the middle exon (Exon X) after treatment (as shown in FIG. 2A)^52,53. 934 exon triplets were identified showing differential middle exon inclusion or exclusion in response to Compound (I) treatment. Of these, 254 were exon inclusion events (Δψ≥0.1 and FDR<0.1) and 680 were exon exclusion events (Δψ≤−0.1 and FDR<0.1) (as shown in FIG. 2B). […] The splicing results were evaluated by RT-PCR in independent replicate experiments, confirming all the calculated Δψ values. […]

[1] = CSNK1A1 Exon 148897357-148897440
[2] = CYB561D2 Exon 50389440-50389477
[3] = CYP20A1 Exon 204110569-204110618
[4] = CYP20A1 Exon 204143296-204143411
[5] = DCAF17 Exon 172330376-172330485
[6] = DCTD Exon 183837572-183837692, Intron2 183837693-183838440
[7] = DCTD Exon 183837572-183837692, Intron2 183837693-183838463
[8] = DCUN1D5 Exon 102953477-102953568
[9] = DLGAP1-AS1 Exon 3596577-3596673

Clc1nc(NCc2ccncc2)c2cc[nH]c2n1 [Compound (I), 2-chloro-N-(pyridin-4-ylmethyl)-7H-pyrrolo[2,3-d]pyrimidin-4-amine]
Effect (CRAT Exon 131871458-131871556): Exc | T-PSI (CRAT Exon 131871458-131871556): 0.424 | ΔPSI (CRAT Exon 131871458-131871556): −0.150 | Effect (CREBBP Exon 3827614-3827658): Inc | T-PSI (CREBBP Exon 3827614-3827658): 0.969 | ΔPSI (CREBBP Exon 3827614-3827658): 0.133 | Effect (CRLS1 Exon 5996007-5996136): Exc | T-PSI (CRLS1 Exon 5996007-5996136): 0.889 | ΔPSI (CRLS1 Exon 5996007-5996136): −0.103 | Effect (CRNDE Exon 54954210-54954250): Exc | T-PSI (CRNDE Exon 54954210-54954250): 0.867 | ΔPSI (CRNDE Exon 54954210-54954250): −0.106 | Effect (CRYZ Exon 75172787-75172888): Exc | T-PSI (CRYZ Exon 75172787-75172888): 0.322 | ΔPSI (CRYZ Exon 75172787-75172888): −0.516 | Effect (CRYZ Exon 75196066-75196104): Exc | T-PSI (CRYZ Exon 75196066-75196104): 0.091 | ΔPSI (CRYZ Exon 75196066-75196104): −0.105 | Effect (CSAD Exon 53554911-53554975): Exc | T-PSI (CSAD Exon 53554911-53554975): 0.224 | ΔPSI (CSAD Exon 53554911-53554975): −0.174 | Effect (CSDE1 Exon 115280092-115280184): Unc | T-PSI (CSDE1 Exon 115280092-115280184): 0.096 | ΔPSI (CSDE1 Exon 115280092-115280184): −0.008 | Effect [1]: Unc | T-PSI [1]: 0.116 | ΔPSI [1]: 0.003 | Effect (CTDSPL Exon 37998602-37998634): Exc | T-PSI (CTDSPL Exon 37998602-37998634): 0.336 | ΔPSI (CTDSPL Exon 37998602-37998634): −0.261 | Effect (CTIF Exon 46066129-46066202): Unc | T-PSI (CTIF Exon 46066129-46066202): 0.241 | ΔPSI (CTIF Exon 46066129-46066202): 0.006 | Effect (CTSB Exon 11721885-11721972): Unc | T-PSI (CTSB Exon 11721885-11721972): 0.219 | ΔPSI (CTSB Exon 11721885-11721972): −0.001 | Effect (CUTC Exon 101510126-101510153): Exc | T-PSI (CUTC Exon 101510126-101510153): 0.240 | ΔPSI (CUTC Exon 101510126-101510153): −0.269 | Effect (CWC25 Exon 36966529-36966653): Exc | T-PSI (CWC25 Exon 36966529-36966653): 0.024 | ΔPSI (CWC25 Exon 36966529-36966653): −0.157 | Effect [2]: Exc | T-PSI [2]: 0.823 | ΔPSI [2]: −0.136 | Effect (CYLD Exon 50778641-50778777): Inc | T-PSI (CYLD Exon 50778641-50778777): 0.856 | ΔPSI (CYLD Exon 50778641-50778777): 0.415 | Effect [3]: Exc | T-PSI [3]: 0.410 | ΔPSI [3]: −0.290 | Effect [4]: Exc | T-PSI [4]: 0.830 | ΔPSI [4]: −0.145 | Effect (DAB2 Exon 39417291-39417386): Inc | T-PSI (DAB2 Exon 39417291-39417386): 0.334 | ΔPSI (DAB2 Exon 39417291-39417386): 0.196 | Effect (DBT Exon 100672001-100672192): Exc | T-PSI (DBT Exon 100672001-100672192): 0.880 | ΔPSI (DBT Exon 100672001-100672192): −0.103 | Effect (DCAF8 Exon 160213750-160213824): Unc | T-PSI (DCAF8 Exon 160213750-160213824): 0.899 | ΔPSI (DCAF8 Exon 160213750-160213824): −0.009 | Effect (DCAF8 Exon 160231075-160231148): Inc | T-PSI (DCAF8 Exon 160231075-160231148): 0.864 | ΔPSI (DCAF8 Exon 160231075-160231148): 0.102 | Effect (DCAF10 Exon 37842086-37842283): Exc | T-PSI (DCAF10 Exon 37842086-37842283): 0.533 | ΔPSI (DCAF10 Exon 37842086-37842283): −0.128 | Effect (DCAF11 Exon 24586877-24586941): Exc | T-PSI (DCAF11 Exon 24586877-24586941): 0.828 | ΔPSI (DCAF11 Exon 24586877-24586941): −0.154 | Effect [5]: Exc | T-PSI [5]: 0.826 | ΔPSI [5]: −0.135 | Effect (DCP1A Exon 53338207-53338320): Inc | T-PSI (DCP1A Exon 53338207-53338320): 0.990 | ΔPSI (DCP1A Exon 53338207-53338320): 0.100 | Effect [6]: Unc | T-PSI [6]: 0.122 | ΔPSI [6]: −0.004 | Effect [7]: Unc | T-PSI [7]: 0.235 | ΔPSI [7]: 0.003 | Effect [8]: Inc | T-PSI [8]: 0.993 | ΔPSI [8]: 0.137 | Effect (DDB2 Exon 47256308-47256485): Exc | T-PSI (DDB2 Exon 47256308-47256485): 0.772 | ΔPSI (DDB2 Exon 47256308-47256485): −0.151 | Effect (DGKA Exon 56332295-56332344): Exc | T-PSI (DGKA Exon 56332295-56332344): 0.873 | ΔPSI (DGKA Exon 56332295-56332344): −0.126 | Effect (DGUOK Exon 74166037-74166149): Unc | T-PSI (DGUOK Exon 74166037-74166149): 0.287 | ΔPSI (DGUOK Exon 74166037-74166149): 0.002 | Effect (DHRSX Exon 2310395-2310515): Exc | T-PSI (DHRSX Exon 2310395-2310515): 0.024 | ΔPSI (DHRSX Exon 2310395-2310515): −0.103 | Effect (DIMT1 Exon 61687998-61688061): Exc | T-PSI (DIMT1 Exon 61687998-61688061): 0.851 | ΔPSI (DIMT1 Exon 61687998-61688061): −0.140 | Effect (DIS3 Exon 73354984-73355141): Inc | T-PSI (DIS3 Exon 73354984-73355141): 0.720 | ΔPSI (DIS3 Exon 73354984-73355141): 0.183 | Effect (DIS3 Exon 73355427-73355494): Exc | T-PSI (DIS3 Exon 73355427-73355494): 0.170 | ΔPSI (DIS3 Exon 73355427-73355494): −0.168 | Effect (DLG1 Exon 196888511-196888609): Exc | T-PSI (DLG1 Exon 196888511-196888609): 0.500 | ΔPSI (DLG1 Exon 196888511-196888609): −0.113 | Effect [9]: Unc | T-PSI [9]: 0.834 | ΔPSI [9]: 0.002 | Effect (DMD Exon 31196049-31196087): Exc | T-PSI (DMD Exon 31196049-31196087): 0.086
